Values of other authors in US20150254433A1, “Methods and Models for Determining Likelihood of Cancer Drug Treatment Success Utilizing Predictor Biomarkers, and Methods of Diagnosing and Treating Cancer Using the Biomarkers” (priority 2014, published 2015).
At least one structure is not confirmed: it was looked up by name or label, or the drawing left a doubt.

System: breast cancer cell lines
Conditions: FIG. 2; HER2 over-expressing versus other breast cancer cell lines; cited from earlier work

In the case of CN(C)C/C=C/C(=O)Nc1cc2c(Nc3ccc(F)c(Cl)c3)ncnc2cc1O[C@H]1CCOC1 [afatinib], the “drug sensitivity of HER2 over-expressing cell lines” value is given as “comparatively high drug sensitivity”.
